The values below come from paper PMC11468294 (Advanced Healthcare Materials, 2023).

Some peptides are written in HELM: one residue between dots, names in brackets for other building blocks, links after the first $.

The nature of the series: general procedure: Fmoc solid-phase peptide synthesis; Rink Amide. As to conditions: whole synthesis; for final LC-MS purity / final HPLC purity: LC-MS or analytical HPLC.

As to “PEPTIDE1{[Palm].F.Q.F.K.F.K.C.[am]}$$$$V2.0”, the crude yield was found to be 25% and the “final LC-MS purity” value was more than 90%.

As for “PEPTIDE1{V.V.V.A.A.A.E.E.E.[am]}$$$$V2.0”, the “final HPLC purity” value is reported as more than 70%.

As for “PEPTIDE1{[Palm].V.V.V.A.A.A.E.E.E.[am]}$$$$V2.0”, the crude yield is given as 46% and the “final HPLC purity” value is more than 90%.

On to “PEPTIDE1{V.V.V.A.A.A.K.K.K.[am]}$$$$V2.0”, for which the “final HPLC purity” value is recorded as more than 95%.

As for PEPTIDE1{F.Q.F.K.F.K.C.[am]}$$$$V2.0, the “final LC-MS purity” value is listed as more than 95%.
